Values from PubChem BioAssay AID504764 (Drosophila RNAi Screening Center, 2011).

Aim: 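Genome-wide screen for regulators of Notch-driven gene expression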 (primary screen)
Cells: Drosophila Kc167 cells
Knock-down reagent: long dsRNA against Drosophila genes
Timing: about 5 days (4 days dsRNA, then 24 h after transfection)
Challenge: transfection of constitutively active membrane-tethered Notch lacking the extracellular domain, read 24 h later
Measurement: 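Firefly luciferase from an E(spl)m3 reporter with active Notch, plus control-promoter and uninduced reporter wells for normalisation; unnormalised counts, duplicate wells a and b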
Reading the numbers: induced reporter light, run 1, well a and induced reporter light, run 1, well b: higher = more light from the Notch target reporter with active Notch; control promoter light, run 1, well a and control promoter light, run 1, well b: higher = more light from the viral control promoter (cell number, transfection, viability); uninduced reporter light, run 1, well a: higher = more light from the Notch target reporter without active Notch
Active means: 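Hit if the duplicate-averaged log2 ratio of induced to control-promoter light gives a plate-wise z beyond ±2, or induced to uninduced beyond ±1.8; weak-control or discordant-duplicate wells dropped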
Meaning of the calls: active = modifier hit (raised or lowered Notch signal); inactive = not a hit
The screen tested about 22,000 reagents; below is a random part of those that have a named target and a result. Of all reagents, 403 (1.9%) were called active. 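Unnormalised raw counts per well; ratio z-scores behind the hit calls and whether each hit raises or lowers signal are not deposited.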 Names joined by + are all predicted targets of the reagent. Not given: the amount of reagent.

| target | amplicon | induced reporter light, run 1, well a | induced reporter light, run 1, well b | control promoter light, run 1, well a | control promoter light, run 1, well b | uninduced reporter light, run 1, well a | activity call |
| --- | --- | --- | --- | --- | --- | --- | --- |
| Ercc1 | DRSC07424 | 1.17e5 | 1.54e5 | 1.61e5 | 1.20e5 | 9740 | inactive |
| CG10307 | DRSC04057 | 2.30e5 | 2.27e5 | 1.78e5 | 1.89e5 | 16295 | inactive |
| CG15740 | DRSC19706 | 9275 | 8200 | 19415 | 17885 | 3565 | inactive |
| CG11474 | DRSC04112 | 2.37e5 | 2.07e5 | 1.73e5 | 1.89e5 | 15850 | inactive |
| FASN2 | DRSC00167 | 71690 | 66715 | 1.09e5 | 1.31e5 | 5370 | inactive |
| FASN2 | DRSC00610 | 1.31e5 | 1.65e5 | 1.49e5 | 1.85e5 | 13420 | inactive |
| HLH4C | DRSC18670 | 1.95e5 | 1.87e5 | 3.92e5 | 2.93e5 | 14310 | inactive |
| HLH4C | DRSC21322 | – | – | – | – | – | inactive |
| CG3419 (retired record) | DRSC04368 | 1.25e5 | 1.12e5 | 1.56e5 | 1.53e5 | 9350 | inactive |
| CG3419 (retired record) | DRSC04369 | 2.04e5 | 1.47e5 | 1.88e5 | 1.76e5 | 12625 | inactive |
| Paf-AHalpha | DRSC20267 | 63525 | 62055 | 73625 | 88690 | 9505 | inactive |
| CG10910 | DRSC06007 | 31870 | 31515 | 37755 | 21875 | 3335 | inactive |
| CG6296 | DRSC16013 | 1.69e5 | 1.68e5 | 2.46e5 | 2.18e5 | 11975 | inactive |
| ND-23 | DRSC15526 | 1.98e5 | 2.33e5 | 3.01e5 | 3.68e5 | 16070 | inactive |
| Vps50 | DRSC06910 | 96420 | 85530 | 1.51e5 | 1.81e5 | 8055 | inactive |
| Jon74E | DRSC10617 | 1.79e5 | 1.46e5 | 2.05e5 | 1.88e5 | 7470 | inactive |
| CG33235 | DRSC19641 | 1.12e5 | 1.54e5 | 2.01e5 | 1.90e5 | 7680 | inactive |
| Atat | DRSC10392 | 1.24e5 | 1.13e5 | 79195 | 45795 | 9315 | inactive |
| CG14717 | DRSC14940 | 1.14e5 | 97085 | 86710 | 68495 | 5692 | inactive |
| Ir56a | DRSC05776 | 1.23e5 | 1.42e5 | 1.91e5 | 1.62e5 | 10200 | inactive |
| PAN2 | DRSC07115 | 1.34e5 | 1.36e5 | 1.48e5 | 1.56e5 | 12605 | inactive |
| nac | DRSC16520 | 94105 | 1.32e5 | 1.55e5 | 1.25e5 | 7875 | inactive |
| Obp56g | DRSC06432 | 33410 | 23030 | 29195 | 30115 | 3235 | inactive |
| Cht5 | DRSC16470 | 1.54e5 | 1.26e5 | 89995 | 85300 | 10505 | inactive |
| vari | DRSC03202 | 45590 | 36150 | 33075 | 30165 | 1380 | inactive |
| CG6847 | DRSC19213 | 96745 | 1.03e5 | 1.03e5 | 97950 | 8375 | inactive |
| CG6847 | DRSC20009 | 78535 | 87265 | 80360 | 72465 | 10225 | inactive |
| CG5854 | DRSC15894 | 1.65e5 | 2.03e5 | 2.71e5 | 2.38e5 | 15085 | inactive |
| gammaTub23C | DRSC00820 | 1.27e5 | 1.54e5 | 1.84e5 | 1.93e5 | 12625 | inactive |
| shi | DRSC20373 | 1.12e5 | 1.02e5 | 1.68e5 | 1.87e5 | 7885 | inactive |
| bond | DRSC16135 | 1.20e5 | 1.20e5 | 1.36e5 | 1.28e5 | 10475 | inactive |
| Hsp27 | DRSC11190 | 1.16e5 | 1.27e5 | 86170 | 34115 | 10910 | inactive |
| CG10073 | DRSC05961 | 40070 | 18270 | 31800 | 34555 | 2645 | inactive |
| pod1 | DRSC18362 | 1.46e5 | 1.80e5 | 1.20e5 | 1.12e5 | 13575 | inactive |
| ArfGAP1 | DRSC11173 | 2.15e5 | 1.76e5 | 2.64e5 | 2.85e5 | 17185 | inactive |
| CG2698 | DRSC15447 | 62240 | 68110 | 77870 | 49985 | 4792 | inactive |
| how | DRSC16966 | 31305 | 27935 | 31375 | 30495 | 5055 | inactive |
| Gr28b | DRSC02291 | 1.51e5 | 1.35e5 | 1.23e5 | 1.06e5 | 9115 | inactive |
| Gr28b | DRSC02292 | 1.19e5 | 1.03e5 | 1.21e5 | 77430 | 5820 | inactive |
| Brf | DRSC13228 | 1.13e5 | 98090 | 1.19e5 | 99025 | 10750 | inactive |
| Brf | DRSC14166 | 1.90e5 | 2.11e5 | 1.95e5 | 1.83e5 | 20160 | inactive |
| Brf | DRSC14167 | 2.20e5 | 1.60e5 | 1.60e5 | 1.56e5 | 18335 | inactive |

Records listed so far whose target name begins with A or a (2):
| target | amplicon | induced reporter light, run 1, well a | induced reporter light, run 1, well b | control promoter light, run 1, well a | control promoter light, run 1, well b | uninduced reporter light, run 1, well a | activity call |
| --- | --- | --- | --- | --- | --- | --- | --- |
| Atat | DRSC10392 | 1.24e5 | 1.13e5 | 79195 | 45795 | 9315 | inactive |
| ArfGAP1 | DRSC11173 | 2.15e5 | 1.76e5 | 2.64e5 | 2.85e5 | 17185 | inactive |

The listing continues:
| target | amplicon | induced reporter light, run 1, well a | induced reporter light, run 1, well b | control promoter light, run 1, well a | control promoter light, run 1, well b | uninduced reporter light, run 1, well a | activity call |
| --- | --- | --- | --- | --- | --- | --- | --- |
| dnk | DRSC16933 | 1.97e5 | 1.60e5 | 1.98e5 | 1.91e5 | 13095 | inactive |
| CG1504 | DRSC20513 | 90190 | 94635 | 90075 | 87495 | 9010 | inactive |
| CG14439 | DRSC17931 | 1.23e5 | 1.29e5 | 2.16e5 | 2.53e5 | 10830 | inactive |
| CngA | DRSC06580 | 1.64e5 | 1.01e5 | 1.08e5 | 1.04e5 | 14650 | inactive |
| CngA | DRSC07362 | 1.13e5 | 1.09e5 | 1.28e5 | 1.40e5 | 11155 | inactive |
| CG42813 + CG42814 | DRSC15939 | 1.80e5 | 1.71e5 | 2.31e5 | 2.38e5 | 13505 | inactive |
| CG42813 + CG42814 | DRSC15940 | 1.34e5 | 1.28e5 | 1.80e5 | 1.55e5 | 11615 | inactive |
| Eno | DRSC00750 | 79495 | 72065 | 73635 | 51410 | 6480 | inactive |
| CG14294 | DRSC14774 | 2.03e5 | 1.47e5 | 2.01e5 | 1.97e5 | 11195 | inactive |
| MED14 | DRSC08235 | 14225 | 13800 | 17595 | 18655 | 2810 | inactive |
| Or13a | DRSC20265 | 72180 | 67185 | 93490 | 65230 | 11250 | inactive |
| CG30002 | DRSC05182 | 51325 | 64840 | 81780 | 88885 | 3230 | inactive |
| DUBAI | DRSC07281 | 1.39e5 | 1.24e5 | 1.41e5 | 1.29e5 | 13195 | inactive |
| GstT4 | DRSC19757 | 1.60e5 | 1.84e5 | 2.57e5 | 1.88e5 | 14475 | inactive |
| CG31819 | DRSC01532 | 92000 | 85475 | 85180 | 57230 | 8365 | inactive |
| CG10912 | DRSC06009 | 37070 | 37170 | 58475 | 59385 | 3520 | inactive |
| Tango8 | DRSC06474 | 21675 | 10490 | 12650 | 15540 | 4700 | inactive |
| alpha-Cat | DRSC11917 | 1.16e5 | 1.02e5 | 63495 | 78025 | 8490 | inactive |
| CG10702 | DRSC02097 | 2.11e5 | 2.33e5 | 1.73e5 | 2.04e5 | 17500 | inactive |
| CG15296 | DRSC17983 | 1.33e5 | 1.48e5 | 2.31e5 | 2.33e5 | 9520 | inactive |
| CG42552 (retired record) | DRSC11512 | 2.36e5 | 2.14e5 | 3.20e5 | 2.05e5 | 17670 | inactive |
| CG9471 | DRSC16499 | 3750 | 4910 | 4975 | 4495 | 1842 | inactive |
